The target of assay [1] is IL-17 receptor (Met-1 through Asp-315)-Fc (human) (UniProt Q96F46). Description: BIACORE SPR, IL-17R-Fc immobilised. Background: In SPR one partner is held on a chip, and binding of the other changes the refractive index at the surface.
For assay [2] the target is unchanged. Description: BIACORE SPR, receptor-Fc immobilised on the flow cell.

Sequences of proteins named here, by UniProt entry; tags and fusion partners are left off. Residues count along the entry.
UniProt Q96F46, residues 33-315: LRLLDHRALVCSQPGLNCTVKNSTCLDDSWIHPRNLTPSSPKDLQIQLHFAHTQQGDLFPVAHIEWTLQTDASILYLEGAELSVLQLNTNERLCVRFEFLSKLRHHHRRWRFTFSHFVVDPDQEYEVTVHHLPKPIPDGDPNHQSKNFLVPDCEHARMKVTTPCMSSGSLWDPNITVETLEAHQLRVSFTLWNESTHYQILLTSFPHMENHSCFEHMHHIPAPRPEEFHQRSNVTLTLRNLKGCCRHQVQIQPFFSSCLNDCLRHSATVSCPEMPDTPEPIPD
UniProt Q16552, residues 20-155: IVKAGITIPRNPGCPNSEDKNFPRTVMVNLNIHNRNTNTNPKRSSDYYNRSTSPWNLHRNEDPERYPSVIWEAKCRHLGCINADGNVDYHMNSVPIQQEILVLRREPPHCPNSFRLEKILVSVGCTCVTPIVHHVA

Results are given in words; binding and its absence hold for the method and conditions named. Some results given as binding are weak or reduced against the parent protein; the word gives no strength.

For the substance “Recombinant human IL-17 (R&D Systems) (from UniProt Q16552 20-155) (ligand)”, the binding result in assay [1] and in assay [2] was “binds” in each case.

Values taken from patent publication US20070269439A1 (published 2007).
